{"sequences": {"note": "By UniProt entry, the sequences of proteins in these tests, tags left out. Residues count along the entry.", "UniProt Q16740, 57-277 limits assumed": "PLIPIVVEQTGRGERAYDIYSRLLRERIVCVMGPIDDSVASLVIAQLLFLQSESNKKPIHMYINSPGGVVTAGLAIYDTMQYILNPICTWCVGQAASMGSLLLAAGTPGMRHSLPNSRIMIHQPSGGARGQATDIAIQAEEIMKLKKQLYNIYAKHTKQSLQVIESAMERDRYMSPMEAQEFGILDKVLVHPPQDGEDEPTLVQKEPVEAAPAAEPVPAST"}, "source": "patent EP3930714B1", "about": "“USE OF CASEINOLYTIC PROTEASE P FUNCTION AS A BIOMARKER OF DRUG RESPONSE TO IMIPRIDONE-LIKE AGENTS AND COMPOUNDS FOR SUCH USE” (dated 2026)", "key": {"[1]": {"test_system": "MDA-MB-231 (MDA 231, human breast adenocarcinoma)", "experiment": "Cancer cell viability, CCK-8 assay, MDA-MB-231", "details": "read-out: IC50 (uM, MDA 231), MDA 231, 48 hours incubation"}, "[2]": {"test_system": "HCT116 (human colon cancer)", "experiment": "Cancer cell viability, CCK-8 assay, HCT116", "details": "read-out: IC50 (uM, HCT116), HCT116, 48 hours incubation"}, "[3]": {"molecular_target": "recombinant human caseinolytic peptidase hClpP (Homo sapiens, UniProt Q16740)", "experiment": "hClpP peptide hydrolysis assay (coumarin release from Ac-WLA-AMC)", "details": "purified hClpP"}}, "note": "The structures given here were assigned with low confidence; some may be wrong.", "data": [{"smiles": "O=C1C2=C(CCN(Cc3ccccc3)C2)N2CCN=C2N1Cc1ccc(C(F)(F)F)cc1", "values": [{"measurement": "IC50", "setting": "[1]", "value": 0.05, "unit": "µM"}, {"measurement": "IC50", "setting": "[2]", "value": 0.03, "unit": "µM"}]}, {"smiles": "N#Cc1cccc(CN2CC3=C(C2)N2CCN=C2N(Cc2ccc(Cl)cc2)C3=O)c1", "values": [{"measurement": "Dose-dependency of hClpP activation", "setting": "[3]", "value": "Dose-dependent increases in hClpP activity"}]}]}
